In US7659244B2 (Quest Pharmatech, Inc., priority 2004, dated 2010):

Experiment: general procedure: solution-phase peptide synthesis; DCC/HOBt
Conditions: conjugation step

| Substance | conjugation yield [%] |
| --- | --- |
| Rapamycin-42-O-ester-(NH-D-Ala-D-Leu-L-Ile-S-Phe-CH2OH) | 11 |
| Rapamycin-42-O-ester-(NH-L-Ala-L-Leu-L-Ile-D-Phe-CH2OH) | 10 |
